PubChem BioAssay AID504774, Drosophila RNAi Screening Center, 2011
Aim: 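Knock-downs that shift viability of MMS-exposed cells relative to untreated ones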 (primary screen). Cell system: Drosophila Kc167 cells. Knock-down reagent: long dsRNA against Drosophila genes, about 0.25 µg dsRNA per well. Timing: about 6 days: 3 days knock-down, then 3 days with or without MMS. Challenge: methyl methanesulphonate 0.004% (w/v) for 3 days after knock-down. Detection: 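Viability in wells given MMS, read as ATP luminescence, normalised by quantiles plate by plate and averaged across replicates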. Reading the numbers: mean viability with MMS and viability with MMS: higher = more surviving cells after MMS.
The deposit covers about 23,000 reagents; below is an unselected part of those that have a named target and a result. 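Values are quantile-normalised luminescence on an arbitrary scale; higher means more cells surviving MMS.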 A plus sign joins genes that one reagent is predicted to hit. Reagent sequences are not shown.

The opening 4 records, ahead of the listing:
no.	gene	dsRNA	mean viability with MMS	viability with MMS, replicate 1	viability with MMS, replicate 2
1	Fdx2 (GeneID 38530)	DRSC08306	3.46e6	3.88e6	3.98e6
2	Rab7 (GeneID 42841)	DRSC16810	3.49e6	3.97e6	3.94e6
3	mle (GeneID 35523)	DRSC04921	3.55e6	4.01e6	4.07e6
4	PIG-B (GeneID 38446)	DRSC08216	3.66e6	4.19e6	4.11e6

Results, from the start:
no.	gene	dsRNA	mean viability with MMS	viability with MMS, replicate 1	viability with MMS, replicate 2
1	Fdx2 (GeneID 38530)	DRSC08306	3.46e6	3.88e6	3.98e6
2	Rab7 (GeneID 42841)	DRSC16810	3.49e6	3.97e6	3.94e6
3	mle (GeneID 35523)	DRSC04921	3.55e6	4.01e6	4.07e6
4	PIG-B (GeneID 38446)	DRSC08216	3.66e6	4.19e6	4.11e6
5	PIG-B (GeneID 38446)	DRSC22598	3.66e6	4.08e6	4.14e6
6	CG18662 (GeneID 50437)	DRSC02691	3.76e6	4.30e6	4.24e6
7	CG15279 (GeneID 34863)	DRSC01935	3.54e6	3.97e6	4.06e6
8	atl (GeneID 42934)	DRSC16089	3.43e6	3.89e6	3.89e6
9	Prx4 (GeneID 53577)	DRSC08668	3.47e6	3.95e6	3.93e6
10	Tango14 (GeneID 33298)	DRSC00667	3.56e6	4.05e6	4.05e6
11	CG1324 (GeneID 33060)	DRSC20496	3.45e6	3.82e6	3.96e6
12	dar1 (GeneID 38436)	DRSC08049	3.73e6	4.23e6	4.15e6
13	dar1 (GeneID 38436)	DRSC08233	3.63e6	4.03e6	4.16e6
14	CG12128 (GeneID 36042)	DRSC06104	3.58e6	4.06e6	4.05e6
15	isoQC (GeneID 40270)	DRSC11790	3.67e6	4.18e6	4.09e6
16	mRpS17 (GeneID 37872)	DRSC04463	3.69e6	3.98e6	4.36e6
17	Saf6 (GeneID 33255)	DRSC00633	3.54e6	3.84e6	4.17e6
18	COX8 (GeneID 40390)	DRSC11814	3.50e6	3.86e6	4.05e6
19	salr (GeneID 34568)	DRSC03607	3.40e6	3.84e6	3.83e6
20	CG14219 (GeneID 32951)	DRSC19576	3.51e6	3.98e6	3.99e6
21	RpL36A (GeneID 34098)	DRSC03055	3.24e6	3.62e6	3.72e6
22	Nab2 (GeneID 42897)	DRSC14158	3.35e6	3.81e6	3.82e6
23	CysRS (GeneID 36784)	DRSC05948	3.70e6	4.14e6	4.25e6
24	CG17824 (retired record) (GeneID 39361)	DRSC10288	3.59e6	4.02e6	4.10e6
25	CG14567 (GeneID 40420)	DRSC11728	3.61e6	4.09e6	4.10e6
26	DAAM (GeneID 31075)	DRSC18479	1.71e6	3.85e6	3.90e6
27	Cox10 (GeneID 34394)	DRSC02804	3.43e6	3.86e6	3.86e6
28	CG15635 (GeneID 33665)	DRSC00470	3.62e6	3.92e6	3.97e6
29	CG15635 (GeneID 33665)	DRSC22873	3.17e6	3.77e6	3.80e6
30	CG14483 (GeneID 36995)	DRSC06455	3.60e6	4.18e6	3.97e6
31	eIF4G1 (GeneID 43839)	DRSC17218	2.99e6	3.69e6	3.62e6
32	caps (GeneID 39493)	DRSC11333	3.63e6	4.06e6	4.13e6
33	caps (GeneID 39493)	DRSC22224	3.82e6	4.14e6	4.35e6
34	Ir84a (GeneID 40891)	DRSC12510	3.39e6	3.87e6	3.82e6
35	CG1662 (GeneID 32296)	DRSC19754	3.57e6	4.14e6	4.02e6
36	veil (GeneID 36968)	DRSC06892	3.64e6	4.03e6	4.25e6
37	CG33235 (GeneID 2768871)	DRSC19641	3.61e6	4.06e6	4.10e6
38	sff (GeneID 39732)	DRSC10590	3.54e6	4.06e6	3.95e6
39	CG18609 (GeneID 37158)	DRSC06775	3.64e6	4.08e6	4.13e6
40	beat-VII (GeneID 43213)	DRSC13780	3.40e6	3.79e6	3.90e6
41	beat-VII (GeneID 43213)	DRSC14743	3.60e6	4.14e6	4.02e6
42	beat-VII (GeneID 43213)	DRSC14744	3.81e6	4.28e6	4.35e6
43	beat-VII (GeneID 43213)	DRSC22825	3.42e6	3.94e6	3.90e6
44	CG42582 (retired record) (GeneID 8673986)	DRSC20675	2.18e6	3.75e6	3.56e6
45	Ublcp1 (GeneID 42726)	DRSC14149	3.59e6	4.11e6	4.02e6
46	Arp10 (GeneID 32969)	DRSC19448	3.46e6	3.85e6	3.98e6
47	Cp15 (GeneID 38999)	DRSC11118	3.73e6	4.22e6	4.22e6
48	CG14273 (GeneID 34146)	DRSC02377	3.60e6	4.01e6	4.15e6
49	His2Av (GeneID 43229)	DRSC16702	3.43e6	3.92e6	3.88e6
50	lig (GeneID 35771)	DRSC07246	3.34e6	3.83e6	3.72e6
51	lig (GeneID 35771)	DRSC07247	3.48e6	4.03e6	3.88e6
52	Zw (GeneID 32974)	DRSC20303	3.49e6	3.92e6	3.98e6
53	CG10920 (GeneID 31688)	DRSC17765	3.43e6	3.71e6	4.07e6
54	Cyp313a5 (GeneID 41486)	DRSC16628	3.74e6	4.17e6	4.13e6
55	Pdp (GeneID 31683)	DRSC17825	3.57e6	4.08e6	4.04e6
56	CG13484 (GeneID 39560)	DRSC10026	3.46e6	3.93e6	3.88e6
57	kto (GeneID 44830)	DRSC10983	3.51e6	4.03e6	3.91e6
58	CG7255 (GeneID 39662)	DRSC10790	3.68e6	4.20e6	4.11e6
59	pre-mod(mdg4)-U + mod(mdg4)	DRSC13476	3.53e6	4.03e6	3.99e6
60	CG9452 (GeneID 40119)	DRSC11075	3.61e6	4.03e6	4.14e6
61	CG9452 (GeneID 40119)	DRSC23344	3.17e6	3.21e6	3.85e6
62	lectin-21Ca (GeneID 53552)	DRSC00541	3.56e6	4.11e6	3.96e6
63	TotE (GeneID 35275)	DRSC21355	3.57e6	4.03e6	4.06e6
64	CG30371 (GeneID 35806)	DRSC06835	3.53e6	4.03e6	3.98e6
65	Teh2 (GeneID 38502)	DRSC08458	3.49e6	3.95e6	3.96e6
66	CG4781 (GeneID 37943)	DRSC04488	3.45e6	3.66e6	4.14e6
67	Kdsr (GeneID 43043)	DRSC14245	1.72e6	3.90e6	
68	Hexo1 (GeneID 38528)	DRSC08663	3.42e6	3.87e6	3.89e6
69	Noc2 (GeneID 35386)	DRSC03165	3.34e6	3.73e6	3.75e6
70	TotX (GeneID 117460)	DRSC22206	3.64e6	4.06e6	4.13e6
71	kl-3 (retired record) (GeneID 5740653)	DRSC20730	2.46e6	4.17e6	4.02e6
72	kl-3 (retired record) (GeneID 5740653)	DRSC20891	3.51e6	3.96e6	4.02e6
73	kl-3 (retired record) (GeneID 5740653)	DRSC20934	2.27e6	3.95e6	3.79e6
74	prt (GeneID 117368)	DRSC16894	3.51e6	3.97e6	3.99e6
75	Hyccin (GeneID 37019)	DRSC06983	3.75e6	4.30e6	4.18e6
76	tor (GeneID 35717)	DRSC07707	3.58e6	4.00e6	4.09e6
77	Pal1 (GeneID 36033)	DRSC06106	3.64e6	4.22e6	4.06e6
78	Muc12Ea (GeneID 32384)	DRSC19937	3.62e6	4.05e6	4.14e6
79	CG12715 (GeneID 32252)	DRSC19492	3.49e6	3.95e6	3.94e6
80	Sumo (GeneID 33981)	DRSC03611	2.80e6	2.97e6	3.14e6
81	IFT54 (GeneID 41739)	DRSC15469	3.75e6	4.18e6	4.32e6
82	CG32815 (GeneID 318224)	DRSC18177	3.74e6	4.21e6	4.21e6
83	Cp7Fa (GeneID 3885650)	DRSC18032	3.53e6	4.06e6	3.96e6
84	Cp7Fa (GeneID 3885650)	DRSC18033	3.40e6	3.86e6	3.86e6
85	Spx (GeneID 31558)	DRSC18720	2.87e6	3.40e6	3.49e6
86	Drsl3 (GeneID 317955)	DRSC22630	3.64e6	4.12e6	4.08e6
87	CG31959 (retired record) (GeneID 326180)	DRSC22912	3.27e6	3.86e6	3.83e6
